Results from the supplement of paper PMC12067093, “Discovery and optimisation of a covalent ligand for TRIM25 and its application to targeted protein ubiquitination” (Chemical Science, 2025).
The list shows a part of the results.

Chains of the proteins cited; added tags and fusions are not shown. Lines headed by an entry give the natural chain unless they say otherwise; changes in a name come on top.
UniProt P21266: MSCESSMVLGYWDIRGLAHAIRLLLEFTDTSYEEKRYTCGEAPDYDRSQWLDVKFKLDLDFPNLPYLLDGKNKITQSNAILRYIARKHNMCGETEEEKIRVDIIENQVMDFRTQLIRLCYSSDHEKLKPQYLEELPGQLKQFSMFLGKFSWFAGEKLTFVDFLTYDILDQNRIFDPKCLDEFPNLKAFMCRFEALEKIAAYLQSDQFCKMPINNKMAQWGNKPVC
UniProt Q969Y2: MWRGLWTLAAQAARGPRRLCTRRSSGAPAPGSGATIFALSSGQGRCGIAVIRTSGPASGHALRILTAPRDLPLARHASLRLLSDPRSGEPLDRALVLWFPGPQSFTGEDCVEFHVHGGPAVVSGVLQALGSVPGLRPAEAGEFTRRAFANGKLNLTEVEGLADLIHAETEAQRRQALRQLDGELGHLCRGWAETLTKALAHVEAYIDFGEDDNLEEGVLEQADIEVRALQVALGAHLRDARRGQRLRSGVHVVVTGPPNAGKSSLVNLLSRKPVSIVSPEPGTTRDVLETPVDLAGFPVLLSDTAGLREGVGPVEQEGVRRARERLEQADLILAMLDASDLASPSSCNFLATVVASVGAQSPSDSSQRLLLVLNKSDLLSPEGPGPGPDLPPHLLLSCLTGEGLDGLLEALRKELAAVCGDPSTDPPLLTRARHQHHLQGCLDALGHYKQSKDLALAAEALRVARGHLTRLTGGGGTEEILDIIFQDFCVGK
UniProt O95479: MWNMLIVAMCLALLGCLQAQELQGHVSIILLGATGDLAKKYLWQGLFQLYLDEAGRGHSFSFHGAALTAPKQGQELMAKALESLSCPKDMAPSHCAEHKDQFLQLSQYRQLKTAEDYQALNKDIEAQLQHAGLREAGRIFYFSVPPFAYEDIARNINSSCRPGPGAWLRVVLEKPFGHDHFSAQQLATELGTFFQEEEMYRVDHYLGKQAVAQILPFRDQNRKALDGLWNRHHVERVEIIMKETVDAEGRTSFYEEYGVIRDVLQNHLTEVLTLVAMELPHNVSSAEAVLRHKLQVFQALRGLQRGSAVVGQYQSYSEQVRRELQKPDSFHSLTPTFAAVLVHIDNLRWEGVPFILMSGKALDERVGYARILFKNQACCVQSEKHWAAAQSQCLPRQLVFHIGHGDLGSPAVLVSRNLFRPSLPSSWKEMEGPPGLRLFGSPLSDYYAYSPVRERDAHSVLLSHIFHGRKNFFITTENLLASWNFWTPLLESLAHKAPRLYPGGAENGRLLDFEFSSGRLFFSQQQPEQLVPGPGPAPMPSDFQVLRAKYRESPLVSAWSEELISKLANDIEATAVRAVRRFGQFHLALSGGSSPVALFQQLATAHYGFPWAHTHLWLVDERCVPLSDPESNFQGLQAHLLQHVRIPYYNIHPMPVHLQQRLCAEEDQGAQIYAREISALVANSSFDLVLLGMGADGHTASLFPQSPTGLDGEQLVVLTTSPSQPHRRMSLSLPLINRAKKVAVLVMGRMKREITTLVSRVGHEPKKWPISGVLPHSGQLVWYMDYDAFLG
UniProt P78347: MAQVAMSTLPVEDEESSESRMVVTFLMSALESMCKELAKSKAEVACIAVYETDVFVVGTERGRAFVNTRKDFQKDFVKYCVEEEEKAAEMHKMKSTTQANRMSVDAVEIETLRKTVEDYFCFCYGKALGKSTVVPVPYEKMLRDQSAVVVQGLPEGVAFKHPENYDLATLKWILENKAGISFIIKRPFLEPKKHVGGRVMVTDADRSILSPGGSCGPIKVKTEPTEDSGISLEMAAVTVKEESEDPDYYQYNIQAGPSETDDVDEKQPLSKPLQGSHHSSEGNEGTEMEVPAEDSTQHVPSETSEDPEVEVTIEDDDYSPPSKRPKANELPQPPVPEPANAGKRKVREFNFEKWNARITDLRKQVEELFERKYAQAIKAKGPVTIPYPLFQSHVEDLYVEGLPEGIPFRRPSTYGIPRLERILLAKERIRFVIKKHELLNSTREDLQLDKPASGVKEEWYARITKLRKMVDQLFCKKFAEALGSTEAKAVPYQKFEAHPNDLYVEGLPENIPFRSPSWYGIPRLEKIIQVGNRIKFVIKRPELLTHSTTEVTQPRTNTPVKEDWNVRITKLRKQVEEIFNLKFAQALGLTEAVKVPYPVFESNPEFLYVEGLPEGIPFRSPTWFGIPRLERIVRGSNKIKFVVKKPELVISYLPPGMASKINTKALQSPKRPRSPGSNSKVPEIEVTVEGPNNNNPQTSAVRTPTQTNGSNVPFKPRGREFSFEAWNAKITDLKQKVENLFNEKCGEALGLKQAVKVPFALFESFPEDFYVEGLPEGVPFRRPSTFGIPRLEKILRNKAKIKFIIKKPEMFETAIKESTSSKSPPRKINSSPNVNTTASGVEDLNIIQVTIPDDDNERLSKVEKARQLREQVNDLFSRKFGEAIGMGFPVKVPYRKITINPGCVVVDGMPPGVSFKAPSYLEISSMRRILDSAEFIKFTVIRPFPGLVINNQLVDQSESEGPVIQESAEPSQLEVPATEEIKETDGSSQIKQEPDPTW
UniProt P12081: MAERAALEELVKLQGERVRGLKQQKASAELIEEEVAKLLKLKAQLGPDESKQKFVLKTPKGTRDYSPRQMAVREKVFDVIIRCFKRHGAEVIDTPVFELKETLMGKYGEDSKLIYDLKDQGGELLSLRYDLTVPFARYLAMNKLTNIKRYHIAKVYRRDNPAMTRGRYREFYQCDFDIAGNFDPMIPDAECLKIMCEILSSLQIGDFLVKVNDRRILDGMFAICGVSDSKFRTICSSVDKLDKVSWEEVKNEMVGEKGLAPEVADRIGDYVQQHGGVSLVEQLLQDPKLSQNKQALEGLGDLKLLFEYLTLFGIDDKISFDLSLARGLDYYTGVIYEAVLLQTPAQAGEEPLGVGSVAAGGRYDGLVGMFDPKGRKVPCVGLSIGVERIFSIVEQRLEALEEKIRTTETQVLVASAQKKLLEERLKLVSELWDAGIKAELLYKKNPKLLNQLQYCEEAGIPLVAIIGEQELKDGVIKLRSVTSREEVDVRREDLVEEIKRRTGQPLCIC
UniProt Q16774: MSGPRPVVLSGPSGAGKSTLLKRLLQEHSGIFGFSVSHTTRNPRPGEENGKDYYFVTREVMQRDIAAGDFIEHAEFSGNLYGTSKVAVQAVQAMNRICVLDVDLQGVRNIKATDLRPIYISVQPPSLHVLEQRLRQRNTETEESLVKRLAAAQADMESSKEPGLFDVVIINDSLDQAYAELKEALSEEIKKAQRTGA
UniProt P08236: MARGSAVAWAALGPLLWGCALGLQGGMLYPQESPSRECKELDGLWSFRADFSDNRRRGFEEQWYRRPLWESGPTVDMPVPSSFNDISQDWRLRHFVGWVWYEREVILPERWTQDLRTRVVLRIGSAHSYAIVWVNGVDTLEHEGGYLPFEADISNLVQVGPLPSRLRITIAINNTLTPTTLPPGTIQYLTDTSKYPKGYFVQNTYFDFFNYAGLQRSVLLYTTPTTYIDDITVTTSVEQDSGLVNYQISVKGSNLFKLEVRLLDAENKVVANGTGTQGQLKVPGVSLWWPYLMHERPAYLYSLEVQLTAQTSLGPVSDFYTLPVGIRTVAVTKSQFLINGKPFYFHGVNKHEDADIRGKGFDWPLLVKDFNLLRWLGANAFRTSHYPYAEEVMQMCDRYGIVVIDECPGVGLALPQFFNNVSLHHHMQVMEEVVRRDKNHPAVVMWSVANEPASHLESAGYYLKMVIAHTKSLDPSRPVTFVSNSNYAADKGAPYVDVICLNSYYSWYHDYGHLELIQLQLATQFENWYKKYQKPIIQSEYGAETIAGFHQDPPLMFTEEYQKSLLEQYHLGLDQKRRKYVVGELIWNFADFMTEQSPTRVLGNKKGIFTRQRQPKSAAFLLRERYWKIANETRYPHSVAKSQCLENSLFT
UniProt P00390: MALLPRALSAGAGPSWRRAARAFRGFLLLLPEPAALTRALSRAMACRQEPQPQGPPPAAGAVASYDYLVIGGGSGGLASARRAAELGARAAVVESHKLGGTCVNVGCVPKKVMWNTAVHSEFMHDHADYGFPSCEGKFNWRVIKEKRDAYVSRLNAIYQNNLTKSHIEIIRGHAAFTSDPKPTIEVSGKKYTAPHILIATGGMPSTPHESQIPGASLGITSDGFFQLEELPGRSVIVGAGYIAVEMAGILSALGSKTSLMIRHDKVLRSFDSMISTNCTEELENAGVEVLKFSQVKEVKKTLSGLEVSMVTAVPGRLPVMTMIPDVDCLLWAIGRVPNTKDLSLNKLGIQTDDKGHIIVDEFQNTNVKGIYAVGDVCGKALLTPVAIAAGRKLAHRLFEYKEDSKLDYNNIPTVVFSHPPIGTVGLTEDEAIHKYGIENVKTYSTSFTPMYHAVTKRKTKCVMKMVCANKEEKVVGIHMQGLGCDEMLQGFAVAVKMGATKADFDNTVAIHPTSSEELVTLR
UniProt Q9BQ67, whole entry, looked up: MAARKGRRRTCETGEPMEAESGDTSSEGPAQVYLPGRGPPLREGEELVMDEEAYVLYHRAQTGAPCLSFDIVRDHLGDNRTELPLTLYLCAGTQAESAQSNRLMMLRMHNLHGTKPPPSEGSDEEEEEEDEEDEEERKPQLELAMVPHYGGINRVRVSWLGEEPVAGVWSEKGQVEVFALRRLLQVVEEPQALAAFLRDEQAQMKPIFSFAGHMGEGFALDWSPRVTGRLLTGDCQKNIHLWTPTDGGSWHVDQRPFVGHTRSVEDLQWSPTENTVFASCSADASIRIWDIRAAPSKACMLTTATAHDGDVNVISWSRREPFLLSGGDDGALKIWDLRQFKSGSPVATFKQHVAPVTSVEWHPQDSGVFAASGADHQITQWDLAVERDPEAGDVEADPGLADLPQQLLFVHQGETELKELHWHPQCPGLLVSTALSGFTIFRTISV
UniProt P25098: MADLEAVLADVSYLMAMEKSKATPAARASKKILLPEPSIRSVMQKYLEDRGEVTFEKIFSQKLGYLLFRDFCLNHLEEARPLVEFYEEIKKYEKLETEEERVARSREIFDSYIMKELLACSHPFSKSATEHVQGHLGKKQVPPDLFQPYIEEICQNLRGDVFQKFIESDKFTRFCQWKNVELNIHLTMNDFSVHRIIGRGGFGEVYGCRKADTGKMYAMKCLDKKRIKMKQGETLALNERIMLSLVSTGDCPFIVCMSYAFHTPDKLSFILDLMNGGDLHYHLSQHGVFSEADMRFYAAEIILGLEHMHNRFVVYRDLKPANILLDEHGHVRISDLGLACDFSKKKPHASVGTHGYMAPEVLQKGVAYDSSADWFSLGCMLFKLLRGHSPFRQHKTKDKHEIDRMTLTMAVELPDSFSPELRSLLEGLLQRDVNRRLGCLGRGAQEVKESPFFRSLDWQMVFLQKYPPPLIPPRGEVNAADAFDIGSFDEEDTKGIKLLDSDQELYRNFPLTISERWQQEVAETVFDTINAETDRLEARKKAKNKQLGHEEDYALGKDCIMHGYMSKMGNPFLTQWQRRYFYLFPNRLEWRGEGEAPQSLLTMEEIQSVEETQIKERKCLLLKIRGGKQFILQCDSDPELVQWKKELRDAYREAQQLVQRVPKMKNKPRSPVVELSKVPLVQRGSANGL
UniProt O94927: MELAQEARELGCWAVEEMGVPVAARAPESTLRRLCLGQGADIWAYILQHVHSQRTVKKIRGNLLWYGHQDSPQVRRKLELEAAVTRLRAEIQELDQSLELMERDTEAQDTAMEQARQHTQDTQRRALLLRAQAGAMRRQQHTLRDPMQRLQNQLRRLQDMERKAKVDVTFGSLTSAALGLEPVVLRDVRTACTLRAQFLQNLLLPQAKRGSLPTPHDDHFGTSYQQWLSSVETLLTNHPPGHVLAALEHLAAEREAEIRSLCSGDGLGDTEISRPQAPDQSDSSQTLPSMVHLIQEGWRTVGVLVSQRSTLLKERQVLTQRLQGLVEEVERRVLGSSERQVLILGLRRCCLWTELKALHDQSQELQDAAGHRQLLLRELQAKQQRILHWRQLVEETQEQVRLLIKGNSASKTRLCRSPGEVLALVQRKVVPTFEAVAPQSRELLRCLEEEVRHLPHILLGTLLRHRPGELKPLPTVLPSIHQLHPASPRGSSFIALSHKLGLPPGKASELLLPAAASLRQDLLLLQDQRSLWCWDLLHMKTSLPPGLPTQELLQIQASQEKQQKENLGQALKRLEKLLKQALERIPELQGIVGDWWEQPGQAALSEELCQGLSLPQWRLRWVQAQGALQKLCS

compound: Cc1cc(ccc1-c1ccccc1)C(=O)N1CCCN(CC1)C(=O)CCl [compound 10]; assay: probe-labelled cysteine peptide fold change vs DMSO (competition) (log2 fold change); higher = less target engagement (more negative = stronger competition); conditions: 50 µM; THP-1; incubation time: 4 h
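Further: competitive profiling in live THP-1 cells: cysteine peptides tagged with an iodoacetamide desthiobiotin (IA-DTB) probe, intensity after compound treatment relative to DMSO-treated cells.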

Target | probe-labelled cysteine peptide fold change
GSTM3_P21266_39_RYTCGEAPDYDR (UniProt P21266) | 0.0566
GSTM3_P21266_91_KHNMCGETEEEK (UniProt P21266) | -0.408
GTPBP3_Q969Y2_188_QLDGELGHLCR (UniProt Q969Y2) | -0.00935
H6PD_O95479_393_HWAAAQSQCLPR (UniProt O95479) | 0.0303
GTF2I_P78347_34_MVVTFLMSALESMCK (UniProt P78347) | 0.0445
GSTCD_Q8NEC7_357_LLTTSTEQHPNLCEVPGVEEQSDPLFIGGPRPTMAK (UniProt Q8NEC7) | -0.201
GTF2I_P78347_903_KITINPGCVVVDGMPPGVSFK (UniProt P78347) | -0.408
HARS_P12081_379_KVPCVGLSIGVER (UniProt P12081) | 0.0623
GRAMD1A_Q96CP6_456_RGPQAGGCVVDSEVLTQGIPYQDYFYTAHR (UniProt Q96CP6) | -0.00633
GUK1_Q16774_98_ICVLDVDLQGVR (UniProt Q16774) | 0.28
GUSB_P08236_396_TSHYPYAEEVMQMCDR (UniProt P08236) | 0.174
GSR_P00390_134_VMWNTAVHSEFMHDHADYGFPSCEGK (UniProt P00390) | 0.103
GRWD1_Q9BQ67_90_DHLGDNRTELPLTLYLCAGTQAESAQSNR (UniProt Q9BQ67) | -0.3
GRK2_P25098_72_DFCLNHLEEARPLVEFYEEIKK (UniProt P25098) | 0.0802
HAUS5_O94927_350_CCLWTELK (UniProt O94927) | -0.506
GTF2I_P78347_46_SKAEVACIAVYETDVFVVGTER (UniProt P78347) | -0.0972

Fetched one by one from above, two records:
Target | probe-labelled cysteine peptide fold change
GSTCD_Q8NEC7_357_LLTTSTEQHPNLCEVPGVEEQSDPLFIGGPRPTMAK (UniProt Q8NEC7) | -0.201
HAUS5_O94927_350_CCLWTELK (UniProt O94927) | -0.506
